PubChem BioAssay AID1224831, NIAID | 2016

Assay: 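Confirming genome-wide hits on LPS-triggered TNF-alpha induction with independent siRNA sequences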 (follow-up of hits)
System: human THP-1 B5 monocytic leukaemia cells carrying a TNF promoter luciferase reporter, made macrophage-like with PMA
Knock-down reagent: single siRNA against human genes, 50 nM
Timing: about 68 h of knock-down, then 4 h LPS
Conditions: LPS (Salmonella minnesota, TLR-grade) at 10 ng/ml for 4 h; PMA 5 ng/ml present during knock-down
Measured: 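Firefly to renilla luciferase ratio of a TNF promoter reporter after 4 h LPS, scaled to plate median, turned into robust z-score, averaged over replicates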
Direction: TNF reporter z-score: higher = stronger LPS-induced TNF reporter signal; z-score, median over gene's siRNAs: higher = stronger TNF reporter signal across the gene's siRNAs
Rule for the call: 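Two-sided call: reduced or raised TNF reporter signal counts as active once mean z reaches about -1 or below, or about 1.5 or above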
Calls: active = changed TNF reporter (either direction); inactive = little change
Shown is an unselected part of about 3,500 reagents tested. In the full data, 731 (21%) were called active. 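Active means either lowered or raised reporter signal; the gene-median score did not drive the per-siRNA calls.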 The numbers tell different reagents against one gene apart.

gene knocked down | reagent | TNF reporter z-score, replicate mean | z-score, median over gene's siRNAs | Call
CCDC125 (coiled-coil domain containing 125) | 1 | 1.08 | 0.77 | inactive
CCDC125 (coiled-coil domain containing 125) | 2 | 0.46 | 0.77 | inactive
CCDC125 (coiled-coil domain containing 125) | 3 | 1.22 | 0.77 | inactive
CCDC125 (coiled-coil domain containing 125) | 4 | 0.43 | 0.77 | inactive
CCDC125 (coiled-coil domain containing 125) | 5 | -0.86 | 0.77 | inactive
CCDC125 (coiled-coil domain containing 125) | 6 | 1.62 | 0.77 | active
CNR2 (cannabinoid receptor 2) | 1 | 0.58 | 0.47 | inactive
CNR2 (cannabinoid receptor 2) | 2 | -0.59 | 0.47 | inactive
CNR2 (cannabinoid receptor 2) | 3 | 1.02 | 0.47 | inactive
CNR2 (cannabinoid receptor 2) | 4 | 0.36 | 0.47 | inactive
CNR2 (cannabinoid receptor 2) | 5 | -0.92 | 0.47 | inactive
CNR2 (cannabinoid receptor 2) | 6 | 4.46 | 0.47 | active
DNAAF3 (dynein axonemal assembly factor 3) | 1 | -0.2 | 0.06 | inactive
DNAAF3 (dynein axonemal assembly factor 3) | 2 | -0.31 | 0.06 | inactive
DNAAF3 (dynein axonemal assembly factor 3) | 3 | 1.04 | 0.06 | inactive
DNAAF3 (dynein axonemal assembly factor 3) | 4 | 0.32 | 0.06 | inactive
DNAAF3 (dynein axonemal assembly factor 3) | 5 | -1.8 | 0.06 | active
DNAAF3 (dynein axonemal assembly factor 3) | 6 | 1.45 | 0.06 | inactive
PSMC1 (proteasome 26S subunit, ATPase 1) | 1 | -1.69 | -1.27 | active
PSMC1 (proteasome 26S subunit, ATPase 1) | 2 | -0.99 | -1.27 | inactive
PSMC1 (proteasome 26S subunit, ATPase 1) | 3 | -1.81 | -1.27 | active
PSMC1 (proteasome 26S subunit, ATPase 1) | 4 | -0.82 | -1.27 | inactive
PSMC1 (proteasome 26S subunit, ATPase 1) | 5 | -0.43 | -1.27 | inactive
PSMC1 (proteasome 26S subunit, ATPase 1) | 6 | -1.55 | -1.27 | active
SCN1B (sodium voltage-gated channel beta subunit 1) | 1 | -0.3 | 1.29 | inactive
SCN1B (sodium voltage-gated channel beta subunit 1) | 2 | 1.18 | 1.29 | inactive
SCN1B (sodium voltage-gated channel beta subunit 1) | 3 | 2.01 | 1.29 | active
SCN1B (sodium voltage-gated channel beta subunit 1) | 4 | 1.41 | 1.29 | inactive
SCN1B (sodium voltage-gated channel beta subunit 1) | 5 | -0.48 | 1.29 | inactive
SCN1B (sodium voltage-gated channel beta subunit 1) | 6 | 2.82 | 1.29 | active
NPAS4 (neuronal PAS domain protein 4) | 1 | 0.47 | 0.705 | inactive
NPAS4 (neuronal PAS domain protein 4) | 2 | 0.09 | 0.705 | inactive
NPAS4 (neuronal PAS domain protein 4) | 3 | 0.96 | 0.705 | inactive
NPAS4 (neuronal PAS domain protein 4) | 4 | 1.89 | 0.705 | active
NPAS4 (neuronal PAS domain protein 4) | 5 | 0.94 | 0.705 | inactive
NPAS4 (neuronal PAS domain protein 4) | 6 | -0.37 | 0.705 | inactive
STIMATE (STIM activating enhancer) | 1 | -0.26 | 0.235 | inactive
STIMATE (STIM activating enhancer) | 2 | 0.49 | 0.235 | inactive
STIMATE (STIM activating enhancer) | 3 | 0.43 | 0.235 | inactive
STIMATE (STIM activating enhancer) | 4 | 0.04 | 0.235 | inactive
STIMATE (STIM activating enhancer) | 5 | -1.07 | 0.235 | active
STIMATE (STIM activating enhancer) | 6 | 1.37 | 0.235 | inactive
ZNF655 (zinc finger protein 655) | 1 | 0.23 | 1.01 | inactive
ZNF655 (zinc finger protein 655) | 2 | 0.85 | 1.01 | inactive
ZNF655 (zinc finger protein 655) | 3 | -0.1 | 1.01 | inactive
ZNF655 (zinc finger protein 655) | 4 | 1.84 | 1.01 | active
ZNF655 (zinc finger protein 655) | 5 | 1.76 | 1.01 | active
ZNF655 (zinc finger protein 655) | 6 | 1.17 | 1.01 | inactive
STK35 (serine/threonine kinase 35) | 1 | 0.83 | 0.765 | inactive
STK35 (serine/threonine kinase 35) | 2 | 0.15 | 0.765 | inactive
STK35 (serine/threonine kinase 35) | 3 | 0.7 | 0.765 | inactive
STK35 (serine/threonine kinase 35) | 4 | -0.27 | 0.765 | inactive
STK35 (serine/threonine kinase 35) | 5 | 0.85 | 0.765 | inactive
STK35 (serine/threonine kinase 35) | 6 | 1.03 | 0.765 | inactive
PHKB (phosphorylase kinase regulatory subunit beta) | 1 | -0.46 | -0.215 | inactive
PHKB (phosphorylase kinase regulatory subunit beta) | 2 | -0.23 | -0.215 | inactive
PHKB (phosphorylase kinase regulatory subunit beta) | 3 | -0.2 | -0.215 | inactive
PHKB (phosphorylase kinase regulatory subunit beta) | 4 | -0.05 | -0.215 | inactive
PHKB (phosphorylase kinase regulatory subunit beta) | 5 | -0.46 | -0.215 | inactive
PHKB (phosphorylase kinase regulatory subunit beta) | 6 | 0.17 | -0.215 | inactive

9 entries from above, limited to “z-score, median over gene's siRNAs”.
STIMATE (STIM activating enhancer) #2 = 0.235
STIMATE (STIM activating enhancer) #3 = 0.235
STIMATE (STIM activating enhancer) #4 = 0.235
STIMATE (STIM activating enhancer) #5 = 0.235
STIMATE (STIM activating enhancer) #6 = 0.235
ZNF655 (zinc finger protein 655) #1 = 1.01
ZNF655 (zinc finger protein 655) #2 = 1.01
ZNF655 (zinc finger protein 655) #3 = 1.01
ZNF655 (zinc finger protein 655) #4 = 1.01
